In US20230404098A1:
Results are given in words; binding and its absence hold for the method and conditions named. Some binding calls cover weakened binding; strength is not graded here. Each block holds one molecule with its values, some of them ahead of it.

Columns and labels:
[1] = biological target: T1, Native bovine alpha-casein purified from cow's milk (Sigma Aldrich) (bovine (cow)) (UniProt P02662); assay: co-assembly into casein micelles (alpha + kappa casein with phosphate, citrate, calcium), DLS particle size, FIG. 3
T1 sequence (native phosphorylation (sites not printed), looked up): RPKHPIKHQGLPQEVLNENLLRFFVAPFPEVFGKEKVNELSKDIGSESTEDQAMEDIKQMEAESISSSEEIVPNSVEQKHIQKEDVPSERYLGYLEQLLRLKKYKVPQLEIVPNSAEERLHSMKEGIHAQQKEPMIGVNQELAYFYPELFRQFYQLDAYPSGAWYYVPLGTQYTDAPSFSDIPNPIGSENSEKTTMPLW

[2] = biological target: T1, Native bovine alpha-casein purified from cow's milk (Sigma Aldrich) (bovine (cow)); assay: co-assembly into casein micelles (alpha + kappa casein with phosphate, citrate, calcium), DLS particle size, FIG. 1
[3] = biological target: T2, Hypophosphorylated (~2-3 phosphates per molecule) version of bovine alpha-casein (Sigma) (bovine) (UniProt P02662); assay: as above
T2 sequence (~2-3 phosphates per molecule, looked up): T1 sequence (native phosphorylation (sites not printed), looked up)

[4] = biological target: Bovine kappa casein purified from cow's milk (Sigma Aldrich) (bovine (cow)) (UniProt P02668); assay: co-assembly into casein micelles (alpha + kappa casein with phosphate, citrate, calcium), DLS particle size, FIG. 5
[5] = biological target: Bovine kappa casein purified from cow's milk (Sigma Aldrich) (bovine (cow)) (UniProt P02668); assay: co-assembly into casein micelles (alpha + kappa casein with phosphate, citrate, calcium), DLS particle size, FIG. 8

binding [1]: binds
binding [2]: binds
binding [3]: binds
Molecule: Bovine kappa casein purified from cow's milk (Sigma Aldrich) (from UniProt P02668 22-190)

binding [4]: binds
binding [5]: binds
B1: Native bovine alpha-casein purified from cow's milk (Sigma Aldrich) (protein, bovine (cow), UniProt P02662 16-214, looked up)
chain: T1 sequence (native phosphorylation (sites not printed), looked up)
modifications: native phosphorylation (sites not given)

binding [5]: binds
B2: Recombinantly-produced bovine (cow) alpha-S1-casein (lacking PTMs) with 23 amino acid residues truncated from the N-terminal (F24 alpha-S1-casein) (protein)
chain: FVAPFPEVFGKEKVNELSKDIGSESTEDQAMEDIKQMEAESISSSEEIVPNSVEQKHIQKEDVPSERYLGYLEQLLRLKKYKVPQLEIVPNSAEERLHSMKEGIHAQQKEPMIGVNQELAYFYPELFRQFYQLDAYPSGAWYYVPLGTQYTDAPSFSDIPNPIGSENSGKTTMPLW
